# Results from one PubChem assay

Data taken from PubChem BioAssay AID912, deposited by NCATS (2007).

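Uptake of anthrax lethal toxin into cultured cells, read by FRET (460/530 nm ratio) and reported from the 460 nm channel; the cell line is not named here. Each compound was tested as a concentration series from about 0.0005 to 40 µM. The number is the fitted AC50 of the 460 nm signal alone; lower values mean a more potent effect. A falling signal goes with compounds filed as inhibitors or cytotoxic, a rising one with activators or fluorescent compounds (inferred from the filed classes).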

Values are in µM. Common to all entries: measured here: 460 nm channel. This is a side read-out of the assay, for part of the compounds, not drawn at random. A potency from a partial, single-point or poor curve is only a rough figure. The first word of each remark tells which way the curve ran; it can be opposite to the aim of the assay.

COc1ccc(Cn2c(C)nc3c(c2=O)c2nc4ccccc4nc2n3Cc2ccco2)cc1 read AC50 0.03162 µM (falling, full curve, poor fit). COc1ccccc1CN1CCCC2(CCN(C(=O)c3cc(C(F)(F)F)cc(C(F)(F)F)c3)CC2)C1 read AC50 3.981 µM (rising, partial curve). With COc1ccc(-c2nc(C#N)c(NCc3ccc(C)cc3)o2)cc1OC the assay gave AC50 0.1259 µM (rising, full curve, poor fit). With CCC[C@@H]1CC2=CC(=O)CC[C@]2(C)[C@@H]2CC[C@@]3(C)[C@H](CC[C@]3(O)CCC(=O)O)[C@H]12 the assay gave AC50 25.12 µM (falling, partial curve). Cc1cc(N2C3CCC2CC(O)(c2ccc(F)cc2)C3)nc(-c2ccccc2)n1 (centres unmarked) read AC50 3.162 µM (falling, partial curve). CCCN1C(=O)C2(/C(=C(\O)c3ccc4c(c3)OCCO4)C(=O)C(=O)N2CCCOC)c2ccccc21 (centres unmarked) gave AC50 25.12 µM (falling, partial curve, poor fit). Cn1cccc1C(=O)N1CCC2(CCN(Cc3ccc(C#N)cc3)CC2)CC1 gave AC50 5.012 µM (rising, partial curve).

With C=C(C)Cn1c(-c2ccccc2)nc2ccccc21 the assay gave AC50 7.943 µM (falling, partial curve, poor fit). With Cc1[nH]c2ccccc2c1SCCNC(=O)c1ccc(Br)o1 the assay gave AC50 10 µM (falling, partial curve). For CN1CC=C2C(C#N)=C(N)C(C#N)(C#N)C(CCc3ccccc3)C2C1 (centres unmarked) the result was AC50 10 µM (rising, partial curve). With c1nc(NCC2(N3CCOCC3)CCCCC2)c2ccsc2n1 the assay gave AC50 0.3981 µM (rising, full curve, poor fit). O=C(NCc1ccco1)c1cccc(NC(=O)c2ccccc2)c1 read AC50 25.12 µM (rising, single point). With CSc1ccc(C2C(C#N)=C(N)N(c3ccccc3)C3=C2C(=O)CCC3)cc1 (centres unmarked) the assay gave AC50 12.59 µM (rising, partial curve). With COc1c(C)cccc1C(=O)Nc1cc(-c2nn3c(C)nnc3s2)ccc1C the assay gave AC50 12.59 µM (falling, partial curve).

Cc1cc(NC(=O)CSc2ccc(Cl)cc2)no1 gave AC50 0.003981 µM (falling, full curve, poor fit). COC(=O)c1[nH]c2cccc(OC)c2c1NC(=O)CN1CCC(C(N)=O)(N2CCCCC2)CC1 read AC50 2.512 µM (falling, single point). CC(=O)N1c2ccccc2N(Cc2ccc(C)cc2C)C(=O)C1(C)C gave AC50 15.85 µM (falling, partial curve). For CCc1ccccc1OC[C@@H](O)CN[C@H]1CCCc2ccccc21 the result was AC50 25.12 µM (falling, partial curve). For Cc1nc2sc3c(c2c2nc(-c4ccco4)nn12)CCCC3 the result was AC50 0.7943 µM (falling, single point). For Cc1cc(C(=O)OCC(=O)Nc2ccc(F)cc2)c(C)o1 the result was AC50 1.995 µM (falling, partial curve). Result for Cc1cccnc1NCc1ccc(O)c2ncccc12 was AC50 25.12 µM (falling, single point).

For CC1=C(C(=O)Nc2ccccc2)C(c2ccco2)C(C#N)=C(SCC(=O)OC(C)C)N1 (centres unmarked) the result was AC50 31.62 µM (falling, single point). CC(C)(C)c1cc(C(=O)/C=C/c2ccc(C(=O)O)cc2)cc(C(C)(C)C)c1 gave AC50 12.59 µM (falling, partial curve). For CCOC(=O)Cc1nn2c(=O)cc(C)nc2s1 the result was AC50 12.59 µM (rising, single point). With CCCCNS(=O)(=O)c1ccc2nc(SCC(=O)Nc3sccc3C#N)[nH]c2c1 the assay gave AC50 25.12 µM (falling, single point). Cc1ccc(CCN2CC(C(=O)NCCCN3CCOCC3)CC2=O)cc1 (centres unmarked) gave AC50 5.012 µM (rising, single point). With COc1ccc(-c2nc3cnc(N4CCNCC4)nc3n(C3CC3)c2=O)cc1 the assay gave AC50 10 µM (rising, partial curve). c1cncc(-c2nnc(SCc3cccc4ccccc34)o2)c1 read AC50 25.12 µM (falling, single point).

C/C(CCN1CCCc2nc(C)c(C)cc21)=N\OC[C@@H](O)[C@@H]1O[C@@H]2OC(C)(C)O[C@@H]2[C@H]1O read AC50 2.512 µM (rising, partial curve, poor fit). Result for C=CCn1c(SCc2cccnc2)nnc1-c1ccncc1 was AC50 12.59 µM (rising, partial curve, poor fit). Cc1[nH]nc2c1C(c1cccc(O)c1)C1=C(CC(C)(C)CC1=O)N2 (centres unmarked) read AC50 7.943 µM (rising, partial curve).